Assay results as given in US20210369684A1 (MOUNT TAM THERAPEUTICS, INC., priority 2018, published 2021).
Several values for one entry are separate records, joined by “and”; a condition that tells them apart may be missing. Identical values can stand only once. The source gives many values for each of these; only a part stands here.

Assay: Whole blood concentrations after IP administration to mice (LC-MS/MS)
Type: in vivo, mouse
Settings: 10 mg/kg IP QD x 3 days, Day 1, 2.00 h
Procedure: Shown below are whole blood concentrations following administration of the compound of Formula II to mice. The compound of Formula II was administered to mice at 2 mg/kg or 10 mg/kg for three days and the concentration of the compound in whole blood determined. These determinations were made using protein precipitation, liquid chromatography (LC), and mass spectrometry (MS/MS). Ten μl aliquots of whole blood and matrix calibration standards were distributed in a 96-well plate; 10 μl aliquots of blank matrix for matrix blanks and control blanks were included as controls. Ten μl of water was added to each sample followed by vortexing. One hundred sixty […] of internal standard was added to each sample except the matrix blanks; 160 μl 70:30 water:acetonitrile (ACN) was added to matrix blanks. This was followed by a […]. One hundred fifty μl of the resultant supernatant was then transferred to a new 96-well plate and the samples blown to dryness at 35° C. The resultant product was then reconstituted with 90 μl ACN.

CO[C@H]1C[C@@H]2CC[C@@H](C)[C@@](O)(C2)C(=O)C(=O)N2CCCC[C@H]2C(=O)O[C@H]([C@H](C)C[C@H]2C[C@H]3C[C@@H]2C[C@@H]3O)CC(=O)[C@H](C)/C=C(\C)[C@@H](O)[C@@H](OC)C(=O)[C@H](C)C[C@H](C)/C=C/C=C/C=C/1C [Formula II, C37-[(1R,2S,4R,5S)-5-hyhroxybicyclo[2.2.1]heptane] rapamycin]
Formula II Concentrations in Mouse Whole Blood (individual animals 10, 11, 12): 869 ng/mL and 503 ng/mL | Formula II Concentrations in Mouse Whole Blood, Mean (mean): 722 ng/mL
